Results are given in words; binding and its absence hold for the method and conditions named. For part of these data: In cells and extracts the contact can be indirect. Some entries that bind do so weakly or less than the wild type.
How the values were obtained:
[1] = biological target: Flag-tagged MCL1 (Myeloid Cell Leukemia 1), wild type, full-length (UniProt Q07820); test: co-IP; anti-MCL1 antibody, MCL1 CRISPR HCT116 p53-/- cells transiently transfected with wild type or mutant MCL1; blots for CaM and ENO1
[2] = biological target: Flag-tagged MCL1 (Myeloid Cell Leukemia 1), wild type, full-length (UniProt Q07820); test: co-IP; anti-Flag (M2) antibody, MCL1 knockout HCT116 p53-/- cells transiently transfected with Flag-tagged MCL1 or empty vector; lysis in 20 mM Tris/HCl pH 7.4, 150 mM NaCl, 2 mM EDTA, 10% glycerol, 1% Triton X-100; 4 °C; ENO1 under CIS condition
GST-ENO1 fusion protein = GST-ENO1 fusion protein (UniProt P06733); test: pull-down; GST or GST-ENO1 bound to glutathione-Sepharose beads, purified MCL1 added; 50 mM potassium phosphate pH 7.5, 150 mM KCl, 1 mM MgCl2, 10% glycerol, 1% Triton X-100; 4 °C, 2 h; western blot; both purified

Sequences of proteins named here, by UniProt entry; tags and fusion partners are left off.
UniProt Q07820: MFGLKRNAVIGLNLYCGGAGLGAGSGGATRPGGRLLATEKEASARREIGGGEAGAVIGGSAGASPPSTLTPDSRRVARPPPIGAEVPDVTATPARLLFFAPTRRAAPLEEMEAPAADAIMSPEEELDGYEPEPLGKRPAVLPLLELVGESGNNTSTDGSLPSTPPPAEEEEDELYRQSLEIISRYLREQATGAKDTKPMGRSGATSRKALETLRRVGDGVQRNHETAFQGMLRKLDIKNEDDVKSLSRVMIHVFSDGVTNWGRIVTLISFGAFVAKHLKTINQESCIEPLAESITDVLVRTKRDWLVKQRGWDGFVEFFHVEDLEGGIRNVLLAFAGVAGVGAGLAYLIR
UniProt P06733: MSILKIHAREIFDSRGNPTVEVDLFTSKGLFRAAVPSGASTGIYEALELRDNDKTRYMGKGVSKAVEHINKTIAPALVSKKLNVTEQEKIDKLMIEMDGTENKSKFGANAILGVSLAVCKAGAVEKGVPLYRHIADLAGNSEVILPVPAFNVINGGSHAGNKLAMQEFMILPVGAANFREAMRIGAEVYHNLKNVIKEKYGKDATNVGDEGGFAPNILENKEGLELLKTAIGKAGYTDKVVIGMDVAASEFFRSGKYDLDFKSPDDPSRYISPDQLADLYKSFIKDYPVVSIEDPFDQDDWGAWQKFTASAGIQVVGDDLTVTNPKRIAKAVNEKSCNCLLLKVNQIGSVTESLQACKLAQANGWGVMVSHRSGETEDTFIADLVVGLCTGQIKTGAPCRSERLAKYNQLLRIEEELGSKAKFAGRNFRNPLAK

| binding [1] | binding [2] | binding (GST-ENO1 fusion protein) | Substance |
| --- | --- | --- | --- |
| binds | binds | – | alpha-enolase (from UniProt P06733 1-434) (enzyme) |
| – | – | binds | Flag-tagged MCL1 (Myeloid Cell Leukemia 1), wild type, full-length (from UniProt Q07820 1-350) |
